Consider 1 compound from publication PMC11104598.

In this test the target is bromodomain-containing protein 4 (BRD4) (Homo sapiens, UniProt O60885). In words: PROTAC degradation by western blot (DC50, MDA-MB-231), blocked by excess JQ1; BD1 reporter and BD1-DCAF11 co-IP. The text has this:
PROTAC degradation by western blot (DC50, MDA-MB-231), blocked by excess JQ1; BD1 reporter and BD1-DCAF11 co-IP on bromodomain-containing protein 4 (BRD4) | an excess of JQ1 could competitively block the degradation of BRD4 induced by HL435
For orientation: Immunoblotting shows a protein as a band on a membrane.

The structures given here were assigned with low confidence; some may be wrong.

Regarding `Cc1sc2c(c1C)C(c1ccc(Cl)cc1)=N[C@@H](CC(=O)NCCCOCCOCCOCCCNC(=O)COc1ccc(Br)cc1/C=C1\C(=O)Nc3cc(C(F)(F)F)ccc31)c1nnc(C)n1-2`, the DC50 (commonly the concentration giving 50% degradation) is 11.9 nM.
